According to doi:10.1101/2021.05.16.444380:
No constants are given. Whether binding was seen depends on the method and setting. Binding seen in cells or lysates may run through a third protein. These calls come from enrichment with a bait or labelling near it, and not all partners need be listed. Sequences can lack the tags named with a protein.

Assays:
[1] = molecular target: T1, myc-BirA-WtipN (Xenopus) (UniProt A9LS46); experiment: proximity labelling
T1 sequence: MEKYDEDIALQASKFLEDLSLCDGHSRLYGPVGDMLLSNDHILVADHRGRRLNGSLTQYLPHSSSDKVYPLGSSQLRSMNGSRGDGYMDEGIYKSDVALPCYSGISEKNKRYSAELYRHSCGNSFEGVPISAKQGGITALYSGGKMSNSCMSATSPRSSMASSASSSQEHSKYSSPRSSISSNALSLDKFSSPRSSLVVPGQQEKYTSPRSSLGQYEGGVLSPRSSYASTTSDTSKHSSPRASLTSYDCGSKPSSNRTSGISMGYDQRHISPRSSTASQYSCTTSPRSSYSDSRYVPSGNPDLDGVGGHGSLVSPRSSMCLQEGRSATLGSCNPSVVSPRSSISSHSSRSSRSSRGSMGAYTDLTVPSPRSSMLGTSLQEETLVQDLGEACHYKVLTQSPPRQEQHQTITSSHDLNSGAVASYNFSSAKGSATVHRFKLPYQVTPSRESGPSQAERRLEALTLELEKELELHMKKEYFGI

[2] = molecular target: T2, GFP-WtipN (Xenopus) (UniProt A9LS46); experiment: proximity labelling
T2 sequence: T1 sequence

binding [1]: binds | binding [2]: binds
Substance: Xenopus homologue of SSX2IP/ADIP/Msd1
